This passage reports binding results from publication PMC6347614.

Protein sequences, listed by entry. Tags and fused reporters are not part of them.
UniProt Q9H0J4: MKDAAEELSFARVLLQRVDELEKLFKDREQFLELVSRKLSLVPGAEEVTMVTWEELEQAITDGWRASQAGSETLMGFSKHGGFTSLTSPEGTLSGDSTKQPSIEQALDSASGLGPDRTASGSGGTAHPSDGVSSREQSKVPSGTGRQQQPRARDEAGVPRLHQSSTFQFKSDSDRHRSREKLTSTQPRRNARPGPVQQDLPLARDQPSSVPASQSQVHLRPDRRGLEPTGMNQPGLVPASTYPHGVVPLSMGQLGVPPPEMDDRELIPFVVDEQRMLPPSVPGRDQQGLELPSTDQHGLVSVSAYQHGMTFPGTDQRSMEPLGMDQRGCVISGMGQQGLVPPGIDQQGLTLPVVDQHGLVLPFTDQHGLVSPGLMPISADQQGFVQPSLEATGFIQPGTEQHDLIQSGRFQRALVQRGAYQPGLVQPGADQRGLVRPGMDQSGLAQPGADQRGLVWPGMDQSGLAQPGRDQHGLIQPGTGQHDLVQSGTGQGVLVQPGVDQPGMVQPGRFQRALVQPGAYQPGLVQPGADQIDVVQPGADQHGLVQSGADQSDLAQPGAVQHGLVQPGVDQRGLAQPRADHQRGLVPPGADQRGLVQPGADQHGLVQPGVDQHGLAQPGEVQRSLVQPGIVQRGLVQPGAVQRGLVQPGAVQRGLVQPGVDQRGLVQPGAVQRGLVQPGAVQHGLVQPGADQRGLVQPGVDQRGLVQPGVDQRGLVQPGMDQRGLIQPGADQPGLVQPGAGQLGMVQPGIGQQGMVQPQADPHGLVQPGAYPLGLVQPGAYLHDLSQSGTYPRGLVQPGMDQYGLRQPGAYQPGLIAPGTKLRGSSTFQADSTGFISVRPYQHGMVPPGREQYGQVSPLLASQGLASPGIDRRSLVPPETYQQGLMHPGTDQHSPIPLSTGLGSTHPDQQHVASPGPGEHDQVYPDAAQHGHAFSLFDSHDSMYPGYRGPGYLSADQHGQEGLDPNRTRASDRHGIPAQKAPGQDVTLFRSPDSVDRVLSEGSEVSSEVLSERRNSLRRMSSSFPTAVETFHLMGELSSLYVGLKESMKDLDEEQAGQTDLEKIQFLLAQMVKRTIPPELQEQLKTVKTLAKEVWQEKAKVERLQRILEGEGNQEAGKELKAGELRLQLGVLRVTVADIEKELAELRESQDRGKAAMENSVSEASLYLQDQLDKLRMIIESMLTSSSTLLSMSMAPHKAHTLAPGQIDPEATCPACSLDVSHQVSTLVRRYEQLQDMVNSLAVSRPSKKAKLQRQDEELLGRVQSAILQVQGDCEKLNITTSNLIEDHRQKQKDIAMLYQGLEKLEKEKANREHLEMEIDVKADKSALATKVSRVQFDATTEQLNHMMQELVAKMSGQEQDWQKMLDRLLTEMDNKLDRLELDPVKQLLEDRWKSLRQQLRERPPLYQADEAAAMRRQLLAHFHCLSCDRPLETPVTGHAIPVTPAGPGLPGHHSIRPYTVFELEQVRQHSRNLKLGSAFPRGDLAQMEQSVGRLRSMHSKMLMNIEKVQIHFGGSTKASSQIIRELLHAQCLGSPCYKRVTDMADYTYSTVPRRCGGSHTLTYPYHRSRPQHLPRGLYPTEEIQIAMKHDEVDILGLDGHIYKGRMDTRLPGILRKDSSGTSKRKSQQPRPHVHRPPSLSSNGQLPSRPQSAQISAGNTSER
UniProt O75969: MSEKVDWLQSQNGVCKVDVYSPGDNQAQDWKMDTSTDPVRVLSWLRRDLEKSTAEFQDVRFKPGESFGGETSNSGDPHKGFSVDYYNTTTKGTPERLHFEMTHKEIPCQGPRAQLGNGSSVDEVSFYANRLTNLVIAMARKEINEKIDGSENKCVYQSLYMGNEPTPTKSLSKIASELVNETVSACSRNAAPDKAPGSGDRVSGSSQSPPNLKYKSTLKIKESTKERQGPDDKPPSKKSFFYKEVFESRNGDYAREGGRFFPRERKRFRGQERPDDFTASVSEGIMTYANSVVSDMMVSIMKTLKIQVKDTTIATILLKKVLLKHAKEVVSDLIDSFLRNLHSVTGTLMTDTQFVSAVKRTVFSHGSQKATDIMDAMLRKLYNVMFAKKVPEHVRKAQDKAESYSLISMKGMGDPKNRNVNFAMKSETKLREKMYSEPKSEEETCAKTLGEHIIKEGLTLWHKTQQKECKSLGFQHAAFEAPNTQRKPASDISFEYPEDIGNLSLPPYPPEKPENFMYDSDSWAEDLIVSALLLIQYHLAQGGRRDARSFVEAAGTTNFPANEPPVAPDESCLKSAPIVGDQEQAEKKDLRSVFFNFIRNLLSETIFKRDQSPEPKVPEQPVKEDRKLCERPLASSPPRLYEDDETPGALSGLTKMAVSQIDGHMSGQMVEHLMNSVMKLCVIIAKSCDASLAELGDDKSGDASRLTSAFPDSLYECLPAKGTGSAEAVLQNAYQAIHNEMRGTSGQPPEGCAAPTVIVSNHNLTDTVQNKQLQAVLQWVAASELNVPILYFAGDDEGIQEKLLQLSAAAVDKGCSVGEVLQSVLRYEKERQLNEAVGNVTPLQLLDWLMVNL
UniProt Q9ESG2: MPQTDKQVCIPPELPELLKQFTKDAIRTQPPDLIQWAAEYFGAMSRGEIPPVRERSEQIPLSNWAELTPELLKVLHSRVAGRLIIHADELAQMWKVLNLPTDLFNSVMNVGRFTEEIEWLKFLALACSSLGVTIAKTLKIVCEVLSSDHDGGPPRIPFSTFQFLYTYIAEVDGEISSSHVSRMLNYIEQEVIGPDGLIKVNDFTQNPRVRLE

Assay [1] addresses glutamine rich 2 (QRICH2) (human) (UniProt Q9H0J4). As to the kind of experiment: co-IP; exogenous Co-IP in HEK 293 cells; extracts incubated with 3 µg of antibody overnight at 4 °C, Protein A/G magnetic beads, washed three times with 1× PBS, immunoblot; the precipitated partner is not stated.
Assay [2] addresses T1, Akap3 (mouse (endogenous in testes)) (UniProt O88987).
T1 sequence: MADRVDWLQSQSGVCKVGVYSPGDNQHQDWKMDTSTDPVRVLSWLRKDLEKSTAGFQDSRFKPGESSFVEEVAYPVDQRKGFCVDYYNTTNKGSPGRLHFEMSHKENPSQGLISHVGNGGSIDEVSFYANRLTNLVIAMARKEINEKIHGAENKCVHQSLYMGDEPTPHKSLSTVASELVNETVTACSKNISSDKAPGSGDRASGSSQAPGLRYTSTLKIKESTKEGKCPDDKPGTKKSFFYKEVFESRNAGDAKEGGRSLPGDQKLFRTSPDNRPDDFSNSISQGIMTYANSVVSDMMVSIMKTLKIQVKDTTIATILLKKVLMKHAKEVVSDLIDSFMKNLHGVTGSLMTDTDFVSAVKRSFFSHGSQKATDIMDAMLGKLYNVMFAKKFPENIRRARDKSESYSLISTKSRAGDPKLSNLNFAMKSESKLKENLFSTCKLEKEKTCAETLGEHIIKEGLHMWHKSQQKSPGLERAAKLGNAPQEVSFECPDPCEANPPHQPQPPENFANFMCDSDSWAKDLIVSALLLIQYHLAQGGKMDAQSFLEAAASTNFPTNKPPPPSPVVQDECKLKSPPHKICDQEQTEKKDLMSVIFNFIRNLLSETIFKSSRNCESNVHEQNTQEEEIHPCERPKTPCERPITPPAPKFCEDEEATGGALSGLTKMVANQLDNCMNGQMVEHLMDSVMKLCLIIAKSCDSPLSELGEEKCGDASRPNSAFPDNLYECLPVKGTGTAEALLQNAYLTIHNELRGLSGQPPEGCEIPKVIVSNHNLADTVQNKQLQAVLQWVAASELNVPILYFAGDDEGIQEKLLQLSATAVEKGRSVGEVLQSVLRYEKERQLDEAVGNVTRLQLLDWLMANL
As to the kind of experiment: co-IP; endogenous proteins in testes of WT and Qrich2-KO mice; extracts incubated with 3 µg of antibody overnight at 4 °C, Protein A/G magnetic beads, washed three times with 1× PBS, immunoblot.

Results are given in words; binding and its absence hold for the method and conditions named. In cells and extracts the contact can be indirect. Some binding calls cover weakened binding; strength is not graded here.

“A-kinase anchoring protein (AKAP3) (from UniProt O75969 1-853)”: in assay [1], the binding entry is “binds”.
Consider Ropn1 (from UniProt Q9ESG2 1-212), for which the binding result in assay [2] is given as “binds”.

B1: Cabyr (protein, UniProt Q9D424 1-453)
chain: MISSKPRLVVPYGLKTLLEGVSRAILKTNPTNITQFAAVYFKELIVFREGNSSLDIKDLIKQFHQMKVEKWAEGVTVEKKECIKEPIKPPPVPCKPTHMEKSTDTEEDNVAGPLFSNKTTQFPSVHAEVQSEETSEGARGPSDKPTTPKTDYTPPSSPPPAPVSAEYAYVPADPAQFAAQMLGNVPSTYSEVLMVDVATSTPAVPQDVLSAEFAEEVVLSAPLVCSGETVEVQVVSKTSAQVVVGPVSEAEPPKASSAPLQGEQEPPAHEAPDTQVTSASRISSIYNDVPVNEGVVYVEEIPGYIVIPFTDHDQVACVKEIEQSPPGSPKAVEPKTKISIESLKTVQVEENSQHKSSVHVEAEATVLLSNTALDGQPEVPAEPLDAEGFFKVASENSLHLETEIVIINPDDPGQEESGGNAAPHSSGDPFPPAPGGLTEPEMQPDGEAAPEQV
As for B1, in assay [2], the binding result is on record as “binds”.

B2: outer dense fiber of sperm tails 2 (ODF2) (protein, UniProt Q5BJF6 1-829)
chain: MSASSSGGSPRFPSCGKNGVTSLTQKKVLRAPCGAPSVTVTKSHKRGMKGDTVNVRRSVRVKTKVPWMPPGKSSARPVGCKWENPPHCLEITPPSSEKLVSVMRLSDLSTEDDDSGHCKMNRYDKKIDSLMNAVGCLKSEVKMQKGERQMAKRFLEERKEELEEVAHELAETEHENTVLRHNIERMKEEKDFTILQKKHLQQEKECLMSKLVEAEMDGAAAAKQVMALKDTIGKLKTEKQMTCTDINTLTRQKELLLQKLSTFEETNRTLRDLLREQHCKEDSERLMEQQGALLKRLAEADSEKARLLLLLQDKDKEVEELLQEIQCEKAQAKTASELSKSMESMRGHLQAQLRSKEAENSRLCMQIKNLERSGNQHKAEVEAIMEQLKELKQKGDRDKESLKKAIRAQKERAEKSEEYAEQLHVQLADKDLYVAEALSTLESWRSRYNQVVKEKGDLELEIIVLNDRVTDLVNQQQTLEEKMREDRDSLVERLHRQTAEYSAFKLENERLKASFAPMEDKLNQAHLEVQQLKASVKNYEGMIDNYKSQVMKTRLEADEVAAQLERCDKENKILKDEMNKEIEAARRQFQSQLADLQQLPDILKITEAKLAECQDQLQGYERKNIDLTAIISDLRSRIEHQGDKLEMAREKHQASQKENKQLSLKVDELERKLEATSAQNIEFLQVIAKREEAIHQSQLRLEEKTRECGTLARQLESAIEDARRQVEQTKEHALSKERAAQNKILDLETQLSRTKTELSQLRRSRDDADRRYQSRLQDLKDRLEQSESTNRSMQNYVQFLKSSYANVFGDGPYSTFLTSSPIRSRSPPA
Take B2: the binding result in assay [1] was “binds”.

B3: testis specific serine kinase 4 (TSSK4) (protein, UniProt Q6SA08 1-328)
chain: MGKGDVLEAAPTTTAYHSLMDEYGYEVGKAIGHGSYGSVYEAFYTKQKVMVAVKIISKKKASDDYLNKFLPREIQVMKVLRHKYLINFYRAIESTSRVYIILELAQGGDVLEWIQRYGACSEPLAGKWFSQLTLGIAYLHSKSIVHRDLKLENLLLDKWENVKISDFGFAKMVPSNQPVGCSPSYRQVNCFSHLSQTYCGSFAYACPEILRGLPYNPFLSDTWSMGVILYTLVVAHLPFDDTNLKKLLRETQKEVTFPANHTISQECKNLILQMLRQATKRATILDIIKDSWVLKFQPEQPTHEIRLLEAMCQLHNTTKQHQSLQITT
As to B3, in assay [1], the binding result is “binds”.
